Some entries share one result that the patent states for a list of compounds.
target: GPR174 (Homo sapiens, UniProt Q9BXC1); experiment: CRE-Luc reporter Gs signaling assay, cells transfected with GPR174; type: cell-based; set-up: host or cells: HEK293 or CHO cell lines (ATCC); conditions: human GPR174 with pCRE-Luc
Method: Compounds were tested in the reporter system with increasing concentrations of GPR174-interacting compounds. GPR174 construct pCMV6-XL4-GPR174 or ADBR2, reporter of interest, pCRE-Luc or GL4.29 (3000 ng), and TK-renilla as an internal control (10 ng) with lipofectamine 2000 (60 ug) (Invitrogen, CA) according to the manufacturer's directions.
The DNA/lipofectamine 2000 mix (3000 μL) was incubated at room temperature for 30 minutes and then added into a 10 cm culture dish (Corning, NY) containing 70-90% confluent cultured cells, typically HEK293 or CHO cell lines (ATCC, VA), in 15 mL of media. The cells were further incubated for 4-6 hours at 37° C. and then media were removed and cells were detached with 2 mL trypsin (Life Technologies, CA). Media (26 mL) were added to the detached cells and 120 μL of transfected cells were transferred to each well on a 96-well plate. Increasing concentration of each compound in DMSO (1.2 μl) was added to the cells after plating into the 96-well plate. The cells were further incubated at 37° C. for various times. The media were removed and the cells lysed. Luciferase and renilla activities were measured with the Dual-luciferase assay system (Promega, WI) according to the manufacturer's directions. Typically, lysis buffer (25 μL) was added to the cells and incubated at room temperature for 20-30 minutes to allow for the cells to lyse. The lysate (10 μL) was measured for luciferase and renilla activity with LARII and Stop&Glo reagent (50 μL each) with a SpectraMax L (Molecular Devices, CA). Data were analyzed with either Excel (Microsoft, WA) or Prism 4.03 (GraphPad, CA).
ADBR2 is a GPCR, like GPR174, that activates the Gs signaling pathway.

Chains of the proteins cited; added tags and fusions are not shown. Lines headed by an entry give the natural chain unless they say otherwise; changes in a name come on top.
UniProt Q9BXC1: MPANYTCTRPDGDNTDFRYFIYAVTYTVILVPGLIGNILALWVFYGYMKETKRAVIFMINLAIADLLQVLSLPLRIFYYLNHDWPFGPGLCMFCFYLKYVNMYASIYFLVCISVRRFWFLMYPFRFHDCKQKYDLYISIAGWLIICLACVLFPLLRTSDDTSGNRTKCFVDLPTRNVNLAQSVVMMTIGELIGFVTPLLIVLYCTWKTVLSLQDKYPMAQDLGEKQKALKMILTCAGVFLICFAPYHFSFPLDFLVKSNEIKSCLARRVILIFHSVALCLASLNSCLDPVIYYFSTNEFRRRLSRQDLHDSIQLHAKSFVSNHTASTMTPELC

Q: For `CCOC(=O)N1CCN(c2cc(N3CCCCC3)c(F)cc2[N+](=O)[O-])CC1` [Compound 7], which “nature of compound in GPR174 signaling assay” value (“nature of compound” for short) is on record?
A: The value was “inverse agonists”.

Q: With `O=[N+]([O-])c1cc(F)c(N2CCCCC2)cc1N1CCN(S(=O)(=O)c2ccccc2)CC1` [Compound 11] as the compound, how does the “nature of compound” value read?
A: The value was “inverse agonists”.

Q: For `O=C(c1ccccc1)N1CCN(c2cc(N3CCCCC3)c(F)cc2[N+](=O)[O-])CC1` [Compound 6], which “nature of compound” value is on record?
A: Its value is “inverse agonists”.

Q: How did the “nature of compound” value turn out when `CC(=O)N1CCN(c2cc(N3CCC(C)CC3)c(F)cc2[N+](=O)[O-])CC1` [Compound 13] was run?
A: Its value is “inverse agonists”.

Q: `CC(=O)N1CCN(c2cc(N3CCCCC3)c(F)cc2[N+](=O)[O-])CC1` [Compound 2] was tested. Which “nature of compound” value did it give?
A: The value was “inverse agonists”.

Q: Which “nature of compound” value does the source give for `CC(C)C(=O)N1CCN(c2cc(N3CCCCC3C)c(F)cc2[N+](=O)[O-])CC1` (centres unmarked) [Compound 16] here?
A: Its value is “inverse agonists”.

Q: Which “nature of compound” value does the source give for `CC1CCCCN1c1cc(N2CCN(C(=O)C(C)(C)C)CC2)c([N+](=O)[O-])cc1F` (centres unmarked) [Compound 17] here?
A: The value was “inverse agonists”.

Q: `CCOC(=O)N1CCN(c2cc(N3CCC(C)CC3)c(F)cc2[N+](=O)[O-])CC1` [Compound 1] was tested. Which “nature of compound” value did it give?
A: Its value is “inverse agonists”.

Q: Which “nature of compound” value does the source give for `CCCC(=O)N1CCN(c2cc(N3CCCCC3)c(F)cc2[N+](=O)[O-])CC1` [Compound 5] here?
A: The value was “inverse agonists”.

Q: Which “nature of compound” value does the source give for `Cc1ccc(S(=O)(=O)N2CCN(c3cc(N4CCCCC4)c(F)cc3[N+](=O)[O-])CC2)cc1` [Compound 15] here?
A: Its value is “inverse agonists”.

Q: `CCC(=O)N1CCN(c2cc(N3CCCCC3)c(F)cc2[N+](=O)[O-])CC1` [Compound 9] was tested. Which “nature of compound” value did it give?
A: Its value is “inverse agonists”.

Q: Which “nature of compound” value does the source give for `CCOC(=O)N1CCN(c2cc(N3CCCCC3C)c(F)cc2[N+](=O)[O-])CC1` (centres unmarked) [Compound 18] here?
A: The value was “inverse agonists”.

Q: For `CC1CCN(c2cc(N3CCN(S(=O)(=O)c4ccccc4)CC3)c([N+](=O)[O-])cc2F)CC1` [Compound 10], which “nature of compound” value is on record?
A: The value was “inverse agonists”.

Q: How did the “nature of compound” value turn out when `Cc1ccc(S(=O)(=O)N2CCN(c3cc(N4CCC(C)CC4)c(F)cc3[N+](=O)[O-])CC2)cc1` [Compound 14] was run?
A: Its value is “inverse agonists”.

Q: For `CC1CCN(c2cc(N3CCN(C(=O)c4cccs4)CC3)c([N+](=O)[O-])cc2F)CC1` [Compound 12], which “nature of compound” value is on record?
A: Its value is “inverse agonists”.

Q: `CCC(=O)N1CCN(c2cc(N3CCC(C)CC3)c(F)cc2[N+](=O)[O-])CC1` [Compound 8] was tested. Which “nature of compound” value did it give?
A: Its value is “inverse agonists”.

Q: How did the “nature of compound” value turn out when `O=[N+]([O-])c1cc(F)c(N2CCCCCC2)cc1N1CCN(S(=O)(=O)c2ccccc2)CC1` [Compound 53] was run?
A: The value was “inverse agonists”.

From US20230321083A1, “Inhibitors of GPR174 and Uses Thereof” (Omeros Corporation, priority 2016, published 2023)
